Measured values published in publication PMC6201568.
For some assays here: The comparison behind a weaker result is the experiment's own reference, which may not be listed here. Tags and fusion partners may be left off the protein sequences shown.

Columns and labels:
[1] = tested on: T1, PhaR-His6 (Bradyrhizobium diazoefficiens USDA110); experiment: EMSA; settings: 285 mM Tris-HCl pH 8.0, 0.14 mg/mL BSA, 1.43 mM DTT, 5% glycerol, 0.04 mg/mL poly(dI-dC), 3.06 mM EDTA, 10 uL, 30 min at 25 C, 6% PAGE in TAE pH 8.2, PhaR-His6 0-110 nM, recombinant protein, residues 1-199, protein details: C-terminal His6, label: none (SYBR Green stain), probe letters rebuilt from the primers and the genome
T1 sequence (looked up): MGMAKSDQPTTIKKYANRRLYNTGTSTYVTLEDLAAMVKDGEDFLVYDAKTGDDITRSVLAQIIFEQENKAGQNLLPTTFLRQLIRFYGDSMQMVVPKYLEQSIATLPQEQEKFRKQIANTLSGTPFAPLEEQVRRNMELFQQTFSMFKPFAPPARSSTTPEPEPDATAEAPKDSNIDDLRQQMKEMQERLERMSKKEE

[2] = tested on: T1, PhaR-His6 (Bradyrhizobium diazoefficiens USDA110); experiment: DNase I footprinting; settings: one protected site overlapping -35; 285 mM Tris-HCl pH 8.0, 0.14 mg/mL BSA, 1.43 mM DTT, 5% glycerol, 0.04 mg/mL poly(dI-dC), 3.06 mM EDTA, 10 uL, 30 min at 25 C; 6% PAGE in TAE pH 8.2; PhaR-His6 0-110 nM; recombinant protein; residues 1-199; protein details: C-terminal His6; label: 5'-FAM on upper or lower strand; probe letters rebuilt from the primers and the genome
[3] = shift at 27.8 nM, complete at 110 nM
[4] = shift at 27.8 nM, complete at 55 nM

“CTTGCCACGCTGTGCATCGGCGGCGGCATGGGTATCGCGATGTGTCTGGCGCGCGACTGAATCTAGCTGTCGCGCAGCTTATTTGGACCATGCGCGTGCGCTGCACACATAAGTGAGTGCGTTGCACGCGACTAAAAAGGCAGCGGTTGCAAATCAAATATTCTTCGCAACCGCCTCAGCCTCGACTAAAGAGAAACGCCCGGCTCACGCCGGGCGTTTTGTTCTTGATGTCCGTCAAACGTCCCGCATAATCCGTAGCTAAAAACGATCACTCAGAAACGTCCGAAGAGTCCAAGGGAAGGAATACGATATGGCACGTGTTGCATTGG (double strand) [phbB2 promoter]”: binds more weakly ([1]; some shift at 110 nM).

“TCCGGGGGATGTCATTCCGGGGCGCGCCACTTGGCGCGAGCCCGGAATCCAATTCCCTGCGATCTCCGGTAGCCCGATGGATTCTCAGATGCGCAATTGCGCATCATGGCTCCCTCGCTTCGGTCGGGCCCCGGAATGACGAAGTACACCTCAACCACGGGTTCCCGTACCCCGGAACCTCATCCTCTCCGGGATTAAATTTTCCCCGCGCACCCCGGATCGCGTTGCGCTGCACAATGTTGACATGTTACGCAGGGATACTGCTGGGCGTTGGACGAGCCATCTTTTTCGTTACGCGTATCCAGTCTTCGTAC (double strand) [FAM-phaP4 promoter (footprint)]”: binds [2].

“GGCGTGATCGGCAATATCATCTGGTTCGTGCTGGCCGGCTGGTGGCTGGCGCTCGGCCACCTCGTGACCGCTCTGGTCCTGGCGATCACCATCATCGGCATCCCCTTCGCCTGGGCCCATCTGAAGCTCGCCGGCATCGCGCTCTGGCCGATCGGCAAGGTGATCGTGCCGGCCTAGCGGCAGTCCCGGTCCCAAGTAACACCCCAAGTGTGCGCCGCCCCCAACTTCACCTTGCGCTGCGGCAAAAAACTTGCACACTCGGCTGAACCGGGCAGTCAAGCGAGCTCGAACCAGGGGAGCGAG (double strand) [ppc promoter]” showed a half-maximal binding ([1]; about half of DNA shifted only at highest concentration) of 110 nM.

“GGATTGAGGGGATTCTGAAACAGGAACTTGGTCGCGTCGGTGACCGCACGTGCCGGATTGAGAGAGGCGTGGGCCATCTCGTACATCCAGTACATCGGCGTCGTCAGGACCGGACTGCCTTCTGCAGCCAGGGGCGGCGCGCCGCCAAACTCACCAATAGGCATCGCTATATCCCTCTTCGCATCGCAGCATACTGCCGAATGCGTAATATTGCGTCAATGCACCGTCCCCGTACATCTACGTGGCGGAGACGGTTAAATCAGCCTGAATCCACGGGAAAGTGAAACTATTCGCCGCTGGACAGCAGCGAGCCGTT (double strand) [phaZ1 promoter]”: binds [1, 3].

“CGAAGGCACCGTTGCGCACGCCCGTCTCTTGCACGAAAAAATCCTCCTAGAACCCGCGACACATAGCGCGACCAAGCTTTGGCGCCATCGCAGTCACCGTGAATAATAGGCCATCCGGCCTAGGTTGGGCGACCTAATACTGATGAACGCTGGCGTTGCCAAGCCGATCCCGCAGGATTTGGTTTATTCAAGGACCGCGCCAAACGTCGCGCATGTCTGCTCTGAGCAGGTGCATCAAAAAATCACGAATGATCGCGCAACCAAATGCGCGTTTCGACGTTATCGGGGGTTATTGCGACGCACAATTCCCTGGGC (double strand) [pckA promoter]”: binds more weakly ([1]; some shift at 110 nM).

“GGCATTGCGGTTAATGCGTGCGGTTTCTCCGTGAATTTCTGGTAATTGACAGCACACACACTTTTCATTTTGCAGTGCAGCAACTATCTGGTTTGGGTGGACGTTGAACGTCGCCTGCCAGGAGTTGCCGTGTCGCTTGCCAGAAATATCGATCTCTTGAGACGCCTGCCGAAGGTGGATGGTCTGCGCTTTGCCGACTTCGGCCGCAGCGCGGATGCGCCCGGTCCATTGCAAGAGGTTGCGGACTTCGGTGACAATCCCGGCAATCTTCGCATGTTCGCGTTCGCGCCGGCGCAGTTGCAGATGCCGCGC (double strand) [phaZ3 promoter]”: binds [1, 4].

“GGGCCGAGCCTTTGAGAATGAGTTTCCTTTGCGGGGCCAACGGGTAGCTGCGGCGCAGCAATCCGGACATTGGACAATTTGTCCAATGTTGCAGTGCGGAATGTTGGGCCAGACAGGCCCGGATTGCCTGGCGCCCCGCCGGGCGGTCGGCTTTGGTTTTCAGGACGTTAAGGGCGCACGAATGGCGACGGCACAGACCCCTGCAATGGCAGACCTCCACTCGGGCGAGCACGGCCACGACCAGGCCAGTCCCGGCGAGATCGCCATCGGCGTCATCATCGGCCGCACCTCGGAATTCTTCGACT (double strand) [cyoA promoter]”: binds [1, 4].

“ACGGCAAGACCCACGACATTGTCGTGCTCGGCCACAACATCGCGCAGGTCCAGGCCCAGATGGAGGCCTATGGGCTGCCAGGTGCCGTCCAGCTCTAAAGACCGCGATCAGGCACGCCTTCGCCGGGATTGGTGAGGGAGGCATCATATTGCCTCCTGTTAAGGCTGTTCACGATTTCGTGATACTGCAGTGCAATATGAATGTTGCATCGCACAATTAACTATGCCATATAAGCCGTGCCCCGGGCCAATGCGGACGGGGTGAGCCCATAGCTCAGACCATTGAGGATGGAGAGAACCCC (double strand) [phaP5 promoter]”: binds ([1]; shift at 27.8 nM, complex at 110 nM).

“TCCGGGGGATGTCATTCCGGGGCGCGCCACTTGGCGCGAGCCCGGAATCCAATTCCCTGCGATCTCCGGTAGCCCGATGGATTCTCAGATGCGCAATTGCGCATCATGGCTCCCTCGCTTCGGTCGGGCCCCGGAATGACGAAGTACACCTCAACCACGGGTTCCCGTACCCCGGAACCTCATCCTCTCCGGGATTAAATTTTCCCCGCGCACCCCGGATCGCGTTGCGCTGCACAATGTTGACATGTTACGCAGGGATACTGCTGGGCGTTGGACGAGCCATCTTTTTCGTTACGCGTATCCAGTCTTCGTAC (double strand) [phaP4 promoter]”: binds ([1]; shift at 13.8 nM, complex at 110 nM).

“AATGCGAGCTGGCGTGTTGACCGTCATTCGCACGATTGCACGGAATGCGGCGGAGGTTCGCGCGCGCAGCCCTGATCTGTTCCAAACGCAATGCCCGTTGCCTCACGAAAGCTGAATTGAAGTTTATGAGCACGTTGCCGAAGCCGGAGCACAGATGTGTCCGGCTTCTTGCTGCCGCATCTTGTGTGCAGTGTCCGGCGCCGGAGATCGGCGGTTCGGCTCTTTTCAGTTGAATAAACCACCCGGTGGAGGCATTATATTGCACCGCAGCATTTCGCTTTGGTCGAATCGTAGAGCGTCTTTCAA (double strand) [blr2367 (exoZ operon) promoter]”: binds [1, 3].

“CTCACCAAGAGCTCCGATTCGAGCCGGATCGAAACGACATAAGTCCACAAGCGAGGCCCGGTTCAAGTCTGGAATTGCAAGTATCGCGCCGCACAACTCGCGGAACCCGCCGGCCCGCGCGCGGCGGCCCCGCGCTGGCATTGCCTCATGCCGTGGAATTTTTTCAGCGCCTGCGCACAAGTGAGAGTCGGTCGTCAGGTTGCTGTAAGGTAACTGACATCTGCGTCCAACATATCGGCATGACGCTTACGACTTTCGTATTGACGCGTTTTGCATTCGGGCGGAGTGTTGCTGTCGCAGCGTCAAAAGGCGCGCATATTTGGAGGAACGGATG (double strand) [exaA promoter]”: binds more weakly ([1]; some shift at 110 nM).
